Reference: patent US20100056570A1, “FUNGICIDES” (Syngenta Crop Protection, Inc., priority 2006, published 2010)
Some of these results come from one statement about several compounds together.

Columns and labels:
Plasmopara viticola = Plasmopara viticola (downy mildew of grapevine) grapevine leaf disk assay, preventive; assay type: in vivo; conditions: 200 ppm; grapevine leaf disks; assessed seven days after inoculation
[1] = tested on: Erysiphe graminis f.sp. tritici; test: Erysiphe graminis f.sp. tritici (wheat powdery mildew) wheat leaf segment assay, preventive; assay type: in vivo; conditions: 200 ppm; wheat leaf segments; assessed four days after inoculation
Pyricularia oryzae = assay type: in vivo; conditions: 200 ppm; rice leaf segments; assessed four days after inoculation
[2] = tested on: Puccinia recondita f.sp. tritici; test: Puccinia recondita f.sp. tritici (wheat brown rust) wheat leaf segment assay, preventive; assay type: in vivo; conditions: 200 ppm; wheat leaf segments; assessed nine days after inoculation
Septoria nodorum = Septoria nodorum (wheat glume blotch) wheat leaf segment assay, preventive; assay type: in vivo; conditions: 200 ppm; wheat leaf segments; assessed four days after inoculation
Septoria tritici = Septoria tritici (leaf blotch) growth inhibition in nutrient broth, microtiter plate; assay type: cell-based; conditions: 200 ppm; PDB broth, 24 C, inhibition of growth photometrically after 72 hrs
Pythium ultimum = Pythium ultimum (Damping off) growth inhibition in potato dextrose broth, microtiter plate; assay type: cell-based; conditions: 20 ppm, 24° C., inhibition of growth photometrically after 48 hours
Phytophthora infestans = assay type: in vivo; conditions: 200 ppm; tomato leaf disks; assessed four days after inoculation
Fusarium culmorum = Fusarium culmorum (root rot) growth inhibition in nutrient broth, microtiter plate; assay type: cell-based; conditions: 200 ppm; PDB broth, 24 C, inhibition of growth photometrically after 48 hrs

Measured: control of fungal infection

COCC(C)(C#N)NC(=O)C(Oc1cc2cc(Br)cnc2cc1F)SC (mixture of isomers) [52 (6)]
at least 60%: Plasmopara viticola | [1] | Pyricularia oryzae | [2] | Septoria nodorum | Septoria tritici | Pythium ultimum

C#CCOCC(C)(C)NC(=O)C(Oc1cc2cc(Br)cnc2cc1F)SC (centres unmarked) [221 (6)]
at least 60%: Plasmopara viticola | Phytophthora infestans | [1] | Pyricularia oryzae | [2] | Septoria nodorum | Septoria tritici | Fusarium culmorum | Pythium ultimum

COCC(C)(C#N)NC(=O)C(Oc1cc2cc(I)cnc2cc1F)SC (mixture of isomers) [52 (7)]
at least 60%: Plasmopara viticola | Phytophthora infestans | [1] | Pyricularia oryzae | [2] | Septoria nodorum | Septoria tritici
